This is one part of the list. The main result of the screen is listed elsewhere. These columns were measured beside it and carry no call. The list favours compounds with an active or inconclusive main result. Words in brackets tell the shape of the fitted curve; partial curves, single points and poor fits give uncertain potencies.

The source of these data is PubChem BioAssay AID2685 (National Center for Advancing Translational Sciences (NCATS), 2010).

The assay is described as follows: qHTS Assay for Lipid Storage Modulators in Drosophila S3 Cells.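 As to cell number change: cells counted by Cell Tracker Red CMTPX staining in the red channel.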 The following applies: BODIPY lipid droplet fluorescence, 18-24 h; for cell number change: measured here: cell count max response, cells fed with added oleic acid. The method, boiled down:
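Laser-scanning cytometry quantifies lipid droplet accumulation (500–530 nm total intensity; droplet/cell object ratio) in oleic acid-fed (400 uM added) Drosophila S3 cells treated with a concentration series. 20 uM Triacsin C defined 100% inhibition.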
(In general: Quantitative high-throughput screening tests each substance at several concentrations.)

Setting [1] is: measured here: lipid fluorescence (Fed channel) AC50, cells fed with added oleic acid.
Where [2] appears, read: measured here: cell number channel AC50, cells fed with added oleic acid.

Usually AC50 stands for the concentration at which the activity in the assay is half-maximal. A higher AC50 goes with weaker potency. Turning to `COc1cc(/C=C/C(=O)c2ccc3c(c2)OCCO3)cc(OC)c1OC`, the cell number change turned out to be 1.23%. Also, under setting [1], the concentration at half-maximal activity (AC50) is 23.1 µM [falling, single point].

Turning to `COCc1cc(C)nc2sc(C(=O)N3CCCC3)c(N)c12`, the AC50 under setting [1] was 3.26 µM [rising, partial curve].

Turning to `CCOC(=O)N1CCN(C(=O)CSc2nc(-c3cccc(C)c3)ns2)CC1`, the cell number change amounted to 30.3%. For the same molecule, under setting [2], the AC50 is 0.517 µM [rising, partial curve]. Under setting [1], the half-maximal activity concentration (AC50) is 25.9 µM [rising, single point].

With `CN(C)CCOc1nc(-c2ccccc2)nc2c1oc1ccccc12`, the cell number change was -32.6%. Further, under setting [2], the AC50 is 29.1 µM [falling, single point]. Further, under setting [1], the AC50 was 13 µM [falling, single point].

On to `O=c1[nH]c(=S)[nH]c(O)c1N=Nc1ccc(-c2ccccc2)cc1[N+](=O)[O-]`, for which the cell number change was -37.3%.

For the molecule `O=C(O)c1ccc(Cn2cnc3cccnc32)cc1`, the cell number change was -15.4%. The concentration at half-maximal activity (AC50) under setting [1] is 32.6 µM [falling, single point].

Turning to `CCOC(=O)c1ccc(NC(=O)c2ccc(NC(=O)c3ccccc3)cc2)cc1`, the cell number change is -16%. The half-maximal activity concentration (AC50) under setting [1] is 0.461 µM [falling, full curve].

Turning to `Cc1cccc(-n2c(CCc3ccccc3)nnc2SCC(=O)c2ccccc2)c1`, the cell number change turned out to be 17%. Besides, the half-maximal activity concentration (AC50) under setting [1] is 2.31 µM [rising, full curve].

Turning to `CCc1ccc(CNC(=O)C2CCCN(c3nn4c(=O)cc(C)nc4s3)C2)cc1` (stereo unspecified), the cell number change was found to be 21.3%. Also, the AC50 under setting [1] is 18.4 µM [falling, single point].

Turning to `CCOc1ccccc1NC(=S)NCCc1ccc(F)cc1`, the cell number change turned out to be 49.3%.

Turning to `COc1ccc(-n2c(SCC(=O)Nc3ccccc3OC)nc(O)cc2=O)cc1`, the cell number change was -1.33%. Also, the half-maximal activity concentration (AC50) under setting [1] is 0.92 µM [falling, partial curve].

`CC1CCc2c(sc3ncnc(SCC(=O)N4CCN(C(=O)c5ccco5)CC4)c23)C1` (stereo unspecified): the cell number change was -9.43%. Besides, the AC50 under setting [1] was 0.184 µM [falling, partial curve].

In the case of `CCCc1nn(-c2cc(Cl)ccc2OC)c2c1C(=O)CCC2`, the AC50 was 3.26 µM [rising, partial curve] under setting [2] and 0.206 µM [rising, full curve] under setting [1].

For `O=C(Nc1nnc(C2=COCCO2)o1)c1ccc(Br)cc1`, the cell number change was -23.3%. Under setting [1], the half-maximal activity concentration (AC50) is 9.2 µM [falling, partial curve].

For the molecule `O=C(NNC(=O)c1ccc2ccccc2c1O)NC1CCCCC1`, the cell number change worked out at 34.1%. Also, under setting [2], the concentration at half-maximal activity (AC50) was 5.17 µM [rising, partial curve]. Moreover, under setting [1], the AC50 was 2.06 µM [rising, full curve].

Consider `O=C(NC1CCCc2ccccc21)C1CCN(S(=O)(=O)c2ccccc2)CC1` (stereo unspecified), for which the cell number change was -20.6%. The AC50 under setting [2] was 0.13 µM [falling, full curve, poor fit].

Regarding `CCCn1c(N2CCN(C(=O)NCc3ccccc3)CC2)nc2ccccc21`, the cell number change worked out at 6.11%. In addition, the AC50 under setting [1] is 3.66 µM [rising, partial curve, poor fit].

With `CCn1nc(C)cc1-c1nnc(SCC(=O)Nc2ccccc2)n1CCCOC`, the AC50 under setting [1] was 0.00517 µM [falling, full curve, poor fit].

As for `CC1CCCCC1NC(=O)c1cccc(NC2=NC3CS(=O)(=O)CC3S2)c1` (stereo unspecified), the cell number change came out at 5.19%. The AC50 under setting [2] was 0.146 µM [rising, full curve, poor fit]. For the same molecule, the AC50 under setting [1] was 3.66 µM [rising, full curve].

Take `O=C(Cc1ccc(S(=O)(=O)N2CCOCC2)s1)NCCOc1ccccc1`: the cell number change is 34.5%. Further, the AC50 under setting [2] was 18.4 µM [rising, single point].

As to `CC(=O)Nc1sc2c(c1C(c1ccccc1Cl)N1CCN(CCO)CC1)CCCC2` (stereo unspecified), the cell number change was -10.1%. In addition, the half-maximal activity concentration (AC50) under setting [1] was 5.8 µM [falling, single point].

For the molecule `CCOCCn1cnc2sc(C(=O)NCCCN3CCOCC3)c(C)c2c1=O`, the cell number change was -9.73%. The half-maximal activity concentration (AC50) under setting [1] was 3.66 µM [falling, partial curve].

Turning to `Cc1cc(C)c2c(c1)c(C)cc1nnc(SCC(=O)c3cccs3)n12`, the cell number change amounted to 33.2%. In addition, the AC50 under setting [2] is 9.2 µM [rising, partial curve, poor fit]. The half-maximal activity concentration (AC50) under setting [1] is 1.84 µM [rising, single point].

Take `Cc1cccc(NC(=O)CN(CC2CCCO2)C(=O)c2cc3ccccc3o2)c1C` (stereo unspecified): the cell number change is -21.4%.

Turning to `Cc1cc(N2CCOCC2)nc2ccc(NC(=O)C3CCC(C)CC3)cc12` (stereo unspecified), the cell number change came out at 5%. For the same molecule, the AC50 under setting [1] was 0.231 µM [rising, full curve, poor fit].

In the case of `N#Cc1ccc(COC(=O)C2CCC(=O)N2)cc1` (stereo unspecified), the cell number change was -92.7%. Besides, the AC50 under setting [2] was 20.6 µM [falling, single point].

As to `CCOc1ccccc1-c1noc(CCC(=O)NC2CCCCC2)n1`, the cell number change was -1.32%. For the same molecule, the AC50 under setting [2] was 6.51 µM [rising, single point]. Besides, the AC50 under setting [1] was 6.31 µM [falling, single point].

With `Cc1cc(=O)[nH]c(Nc2c(C)n(C)n(-c3ccccc3)c2=O)n1`, the cell number change was 2.83%. The AC50 under setting [1] is 1.46 µM [falling, full curve, poor fit].

As to `COc1ccc(C)cc1NC(=O)CSCc1cc(=O)n2c(C)csc2n1`, the cell number change was -23%.

Take `COc1ccc(-c2c3c(=O)n(C)c(=O)n(C)c3cn2-c2ccc(O)cc2)cc1`: the cell number change came to 16.3%.

As for `Cc1ccc[n+](CC2OCc3ccccc3CO2)c1`, the cell number change is -23.3%. The AC50 under setting [1] is 18.4 µM [falling, single point].

Take `CC(NC(=O)C1CCC(C(=O)NC(C)c2ccccc2)CC1)c1ccccc1` (stereo unspecified): the cell number change was -4.5%. The AC50 under setting [2] is 0.058 µM [rising, full curve, poor fit]. Besides, under setting [1], the AC50 is 29.1 µM [rising, single point].

In the case of `N#Cc1nc(-c2ccc(OCc3ccc(Cl)cc3)cc2)oc1NCc1cccnc1`, the cell number change worked out at 12.9%. For the same molecule, the AC50 under setting [1] was 0.259 µM [rising, full curve, poor fit].

With `N#Cc1ccc(N2CCN(C(=O)c3cccs3)CC2)c(F)c1`, the cell number change was -6.35%. Under setting [1], the AC50 is 0.82 µM [rising, single point].

For the molecule `COc1cccc(C(NC(C)=O)c2ccc3cccnc3c2O)c1` (stereo unspecified), the cell number change stood at 8.74%. The AC50 under setting [2] is 4.11 µM [rising, single point].

As for `C/C(=N/NC(=O)c1ccoc1C)C12CC3CC(CC(C3)C1)C2`, the cell number change was -17.9%. The concentration at half-maximal activity (AC50) under setting [2] is 0.103 µM [falling, full curve, poor fit].

In the case of `Cc1ccc(S(=O)(=O)N2CC(O)CC2C(=O)OCc2nc3sc(C)c(C)c3c(=O)[nH]2)cc1` (stereo unspecified), the cell number change was 7.32%. Besides, the concentration at half-maximal activity (AC50) under setting [1] was 14.6 µM [rising, single point].

As to `CC1(C)c2ccccc2N2CC(=O)NC21/C=C/c1ccco1` (stereo unspecified), the AC50 runs as follows: under setting [2], 0.731 µM [falling, single point]; under setting [1], 23.1 µM [falling, partial curve].

As to `CCCCOc1ccc(C2(C)NC(=O)N(C)C2=O)cc1` (stereo unspecified), the cell number change was -1.1%. In addition, the AC50 under setting [1] was 29.1 µM [falling, single point].

On to `CC(Oc1ccc(Cl)cc1Cl)C(=O)Nc1cccnc1` (stereo unspecified), for which the cell number change is -23.1%. Further, the AC50 under setting [1] is 29.1 µM [falling, single point].

With `Cc1ccc(S(=O)(=O)N(C)C)cc1NC(=O)c1ccc(-n2cncn2)c([N+](=O)[O-])c1`, the cell number change is -0.129%. Also, the half-maximal activity concentration (AC50) under setting [1] is 0.00461 µM [rising, full curve, poor fit].

Regarding `Cc1onc(-c2c(F)cccc2Cl)c1C(=O)c1ccccc1`, the cell number change was -54.7%. Moreover, under setting [2], the AC50 is 29.1 µM [falling, single point]. Further, the AC50 under setting [1] is 29.1 µM [falling, single point].

Take `Cc1ccc(NC(=O)c2cccc(S(=O)(=O)N(C)c3ccccc3)c2)cc1S(=O)(=O)N1CCOCC1`: the cell number change was -3.23%.

With `Cc1cc(Br)ccc1NC(=O)CN(C)C(=O)C1CCN(C(=O)c2ccc(F)cc2)CC1`, the cell number change came to 32.5%. The concentration at half-maximal activity (AC50) under setting [2] was 1.64 µM [rising, partial curve].

Consider `Cn1c(O)c(C2=c3ccccc3=NC2=O)sc1=Nc1ccc(Cl)cc1`, for which the cell number change is -25.3%. Also, the AC50 under setting [1] was 29.1 µM [falling, single point].

As to `O=c1cc(-c2ccc(Cl)cc2)nc(N2CCN(c3ccccc3)CC2)[nH]1`, the cell number change was found to be 0.529%.

On to `CC[N+](CC)(CC)CCCCOc1ccc2c(c1)C(=O)c1cc(OCCCC[N+](CC)(CC)CC)ccc1-2`, for which the cell number change came to 0.961%.

On to `COC(c1ccccc1)c1nnc(CCC(=O)N(C)CCOc2ccccc2)o1` (stereo unspecified), for which the cell number change is -17.2%.

Consider `Cc1cccc(-c2noc(CCCC(=O)Nc3ccc(C(N)=O)cc3)n2)c1`, for which the cell number change came to 15.1%. For the same molecule, the half-maximal activity concentration (AC50) under setting [2] is 2.31 µM [rising, partial curve]. Further, the concentration at half-maximal activity (AC50) under setting [1] was 1.84 µM [rising, partial curve].

For the molecule `NS(=O)(=O)c1cccc(NC(=S)NC(=O)C23CC4CC(CC(C4)C2)C3)c1`, the cell number change is -18.3%.

In the case of `COC(=O)c1ccccc1NC(=O)CSc1nnc(C(CO)NC(=O)c2ccccc2)n1C` (stereo unspecified), the cell number change is -0.413%. For the same molecule, the AC50 under setting [2] was 0.461 µM [falling, single point].

In the case of `NS(=O)(=O)c1ccc(CCNC(=O)c2ccc([N+](=O)[O-])cc2[N+](=O)[O-])cc1`, the cell number change amounted to 113%. For the same molecule, the AC50 under setting [2] was 16.4 µM [rising, partial curve]. The AC50 under setting [1] was 8.2 µM [rising, partial curve, poor fit].

Consider `COc1ccccc1NC(=O)c1ccc2c(O)c(S(=O)(=O)c3ccccc3)c(=O)[nH]c2c1`, for which the cell number change is 36.1%. Also, under setting [2], the half-maximal activity concentration (AC50) is 0.92 µM [rising, full curve, poor fit].

On to `CNc1nc(Cl)c(SC)c(NCc2ccc(F)cc2)n1`, for which the cell number change is -3.42%. In addition, the AC50 under setting [1] was 2.31 µM [rising, partial curve].

Consider `CC1(C)CC(=O)C(N=Nc2cc(S(=O)(=O)N3CCOCC3)ccc2Cl)=C(O)C1`, for which the cell number change was -40.7%. Moreover, under setting [2], the AC50 was 29.1 µM [falling, single point]. In addition, the AC50 under setting [1] was 8.2 µM [falling, partial curve].

As for `O=C(O)c1cc2c(cn1)[nH]c1ccccc12`, the cell number change worked out at 38.7%. Also, under setting [2], the AC50 is 29.1 µM [rising, single point].

As for `COc1ccccc1CCNC(=O)c1nccnc1C(=O)O`, the cell number change is -11.5%. Further, the concentration at half-maximal activity (AC50) under setting [1] is 3.26 µM [falling, full curve, poor fit].

In the case of `CC(C)CCNC(=O)NC(=O)COC(=O)CCN=C1NS(=O)(=O)c2ccccc21`, the cell number change was 30.6%. Also, the half-maximal activity concentration (AC50) under setting [2] is 29.1 µM [rising, single point]. The AC50 under setting [1] was 4.61 µM [falling, single point].
